We go through 104 sequences from PubChem BioAssay AID1347423 (Functional Genomics Laboratory (NCATS/FGL), 2020).

In all, about 52,000 sequences went through this assay and about 210 (0.4%) were called active.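 Rule for the calls: active = gene whose silencing raises cell survival under the drug, median off-target-corrected z-score across its silencing RNAs 2 or more; inactive = the rest.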 The list shows a part of the results.

The experiment in a line: Resistance to Poly (ADP-Ribose) Polymerase inhibitor: Gene Identification via Genome-wide siRNA Screen. The conditions noted are these: mouse BRCA2 R2336H ES cells, olaparib, CellTiter-Glo viability; hits give high values. In outline:
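Genome-wide siRNA screen (3 siRNAs/gene, 20 nM) in mouse ES cells carrying hypomorphic BRCA2 R2336H; olaparib 500 nM added 48 h post-transfection, CellTiter-Glo viability 72 h later. Normalized to plate-median negative control; MAD z-scores, gene median, seed-adjusted.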
(In ATP-based viability assays light output follows the ATP content of the culture.)
In the case of CCUUCCUGUCCAUGUACCUTT against Olfr412, the z-score was inactive: 1.37. The same measure for GCCUAGAUGACCUCAAUGUTT against AI450540: inactive: -0.756. Under CCUUAGGUCUAAGUAAUCUTT against Dnase1l1 stands inactive: -0.164; under CGCAAUAGUCUUAAACCCUTT against Lpxn, inactive: -0.102; under CCACCUAUCCUAUUGACGATT against Tsta3, inactive: 1.29. Under GGGAUACUUGCUCAAUGAGTT against Irf1 stands inactive: 1.12; under GCUAUGGGUAAACUUUUUGTT against Olfr354, inactive: 0.196. In the case of GGUUUCAUGAAAGAGGAGCTT against Cbs, the z-score is inactive: -0.85. For the sequence GCUAUGCUUAUUGUAUUGATT against Fut11, the z-score was inactive: 1.16. Under CCACACAUUUAAAAUGGCGTT against Ctsh stands inactive: 0.244. GCUCGAACAUCUCUUGGUCTT against Capn9: the z-score was inactive: 1.68.

For the sequence CCAUUGAUAUUAAAUCGCUTT against Pik3cg, the z-score was inactive: 1.07. Under GGCUAUUAACAUGCAUAGATT against Ear6 stands inactive: -0.519; under GGUUAUGCCUUCAGUGAAGTT against Prep, inactive: 0.51.

Turning to GCUCCAAAUCAGUGUGCAATT against LOC209380, the z-score was inactive: -3.16. Turning to GCCUUAUGGUUUUGUAUUUTT against Nap1l1, the z-score was inactive: -2.2. As for “GGUCUCAUUGUUGGAAGAGTT against 4930433N12Rik”, the z-score is inactive: 0.798. The same measure for GGAUGCACAUUCCUCUACATT against AI586120: inactive: 0.621; for GGCAAACUUUAACUCCACATT against Fastk: inactive: -0.463. For “CCAUUACAUCCAUUUGAUUTT against 1700003M02Rik”, the z-score was inactive: 1.6. For GGAUAAUGAAGAAUGCCAATT against Abca4, the z-score is inactive: 1.67. The same measure for CCAACAGGAGAUACAAUUATT against Pclo: inactive: -2.13; for GGUGAGAUAGGUCUAGUUGTT against Col10a1: inactive: 1.08.

For CCCUACAAACCAUCUGGUUTT against Aga, the z-score was inactive: -0.416. The same measure for GGGUCUUCACAUAUCUCAUTT against Tep1: inactive: 2.83; for “GGAAGACUGGUACACAUAATT against 1200015A22Rik”: inactive: -2.36. Under “GCUUGUGGCCAUAGCAGUUTT against A730024F05Rik” stands inactive: 2.27; under GGAGUACAUCUUAGACAAATT against Tram2, inactive: -1.97; under GCGCAUGAAUUCGUGCAACTT against Hoxb6, inactive: 1.97. Under GCUAGAAAUGAGGUGCGCCTT against Mapkapk5 stands inactive: -0.137; under GGUUAGUUGGCAAGUGUAATT against Cd1d1, inactive: 0.063; under GGAUUAUGACUCCUAGCGCTT against Drap1, inactive: -0.181.

For CAGCAGUGCACAGAAAUGGTT against Olfr12, the z-score was inactive: -1.21. The same measure for GCGAAUGAUAGAUCCUGUCTT against Stx17: inactive: -0.979; for CCGUGGGUUUUUUGAAUCUTT against Slc6a1: inactive: 0.363; for GGACAACACCUAUUUAGUGTT against Cdk5rap3: inactive: -0.209. The same measure for GGACAUUCAUGGUGAUAGCTT against Sfrs14: inactive: 0.321; for GGCGAUGAGAAGUUUGAAUTT against Sbds: inactive: -0.239; for GGGAAAUGUUGUAGUAGAUTT against Rarsl: inactive: 1.17. The same measure for GGCUGAAGACUUGAAAACGTT against Tipin: inactive: 0.0451; for GCUUGUUAAAAUUGGAAAGTT against Kif11: inactive: -1.98.

Turning to GGUAACAACUUUUAAGCCUTT against Prps2, the z-score is inactive: 0.543. Under GCCACCUAAUUGAUUUCCGTT against Ggtl3 stands inactive: -0.0288. Under CGGCAACAACAUCACUCGGTT against Slit1 stands inactive: -0.176; under CCCUUUCACAAAUAGCACATT against Crb3, inactive: -0.263. The same measure for CGUAGCAAUCAACAAUAUCTT against Pcdhb17: inactive: -0.426. Consider GCUAUUCACUUGAUUCAUGTT against Sdad1, for which the z-score is inactive: -2.45. Under “GGGUUGUCCAAUGUGAAGGTT against 0610011F06Rik” stands inactive: -0.389; under GGCCUUUAACAGUGUUGAGTT against Plag1, inactive: 1.68; under “GGGAUUUCUGCACACCCUATT against A530053G22Rik”, inactive: -0.617. Turning to CCGACCUGAAACAGAUUAATT against Slc3a2, the z-score is inactive: -1.31. The same measure for GCUAUGAAGCCAUUAAGAATT against Zfp292: inactive: 1.49; for GGGACAGAAUGUAAUUAAUTT against Olfr702: inactive: -0.879; for “GGUAGAAACAAAGAAAUAGTT against 9130023H24Rik”: inactive: 0.0634.

With GCUUGCUGACCUGAAGUGATT against Krt1-17, the z-score is inactive: -0.588. The same measure for “GGCUUACCUGAACUUUCUGTT against 2210008A03Rik”: inactive: -0.43. The same measure for GGAAAUCCGACCCUACAAATT against Taf12: inactive: 0.0112; for GGAGACCUCCUCCAUGUUATT against Ptk6: inactive: -0.0563. GCGUACCUGGACAAUGUGUTT against Fmnl3: the z-score was inactive: -1.6. Under “GGCUCCUUUGGAGAAGUUUTT against 2610018G03Rik” stands inactive: 1.21; under GGACAUGAUCCAUAUUGCATT against Eif3s6ip, inactive: -1.24; under GGAACCUUGAAGCUUCUCUTT against Hrh3, inactive: -0.994. Under GGCAGAAACAGUCCUUGUUTT against Gfra4 stands inactive: -1.22; under GAAGCAGGCCUGGGAUCUUTT against V1rb9, inactive: 0.0646; under CCUUGAUGACGAAAACAUATT against Plekha2, inactive: 0.756. For GGGAGUCCUUUUCAAACCATT against Cldn15, the z-score is inactive: -0.345. Under GGAGCUGUGCAAGAGGAAATT against Wnt16 stands inactive: -0.493; under “GGCAAUAAGAAUCAGAAAATT against 6720480D16Rik”, inactive: 1.24. The same measure for GGGUUUGACAAAAUUGACCTT against Nudt6: inactive: -0.348; for “GGUGUGACGGUGCCUAUAUTT against D10Wsu102e”: inactive: -3.4; for GGUGCCUGAGGUUCUUUUUTT against Actrt1: inactive: 1.2.

As to GGCAGGAGAUGGUAACUGCTT against Phc2, the z-score is inactive: 0.169.

With GCGACGUAAAUUUUGCUUUTT against Tlr5, the z-score is inactive: 1.06. On to GGUUGAUGUGGAGAAGGUGTT against Gnaq, for which the z-score was inactive: -1.03. Consider GCACCUUAUGGGUAGAAAATT against Mtmr2, for which the z-score is inactive: 0.738.

For the sequence GGAUCUAAGGAAGUUUCUGTT against Gfpt2, the z-score is inactive: 2.22. The same measure for GGCCCAACACAGAGAUACUTT against BC003236: inactive: 1.38; for CAGUAGGUAUGUUCACUGGTT against Olfr1000: inactive: -0.681; for GGUGUCAACCAGUUGUUUUTT against Nr2c1: inactive: 0.389. Under “GGAUCUGGAAAAAGCAACUTT against 2410018G20Rik” stands inactive: -1.19; under GGCUCAGUGUGCCAAACUGTT against Krt2-16, inactive: 2.21. The same measure for GGACCUGUUUGAUUUGGUGTT against Nf2: inactive: -0.0653; for “GGACAGAGAACAAAUGACCTT against 4931417E11Rik”: inactive: -0.199. Regarding CCUACUCUUUUCAUUGACCTT against Il8ra, the z-score is inactive: 1.07. The same measure for GGCAAGCUUGAAUAAUGAATT against D11Wsu99e: inactive: -0.0861; for GCCAUUUAUUGAAACUCGCTT against Becn1: inactive: -0.982.

CCAUAAAAUCAUCAUGAGATT against Apg12l: the z-score was inactive: -0.501. The same measure for “GCAACAUGUAGGCAACAUCTT against 2310042M24Rik”: inactive: 1.62; for GGAUGAGCUCAAGAAGUCCTT against Snrpa: inactive: -1.3. The same measure for CGUAUAUGAUCUGCAUCAUTT against Tex292: inactive: -0.252. The same measure for “GCCGUUUAUUCAUUGCACUTT against G431001I09Rik”: inactive: -2.1. In the case of GGUCGAAAGAUUCCUGAAGTT against Hs3st1, the z-score is inactive: -0.303. “GGAGCUCAUGAUCGUCAAATT against 1700011A15Rik”: the z-score was inactive: 0.631. Under GGUCAAGAAAUGGGCAAGCTT against Arhgdib stands inactive: 0.376; under GGAUCUGAAGACAUGGAGATT against H2-M1, inactive: 0.582. With GCCAUUACAAGAGCUGUUCTT against Myt1l, the z-score is inactive: 2.09. Under GCUGGAGAAAGCGGAGAUATT against Hes7 stands inactive: -1.17; under CGACCCAUCCAUCUUUAUCTT against Dlgh4, inactive: -0.709. Turning to “GGGCCUAAUGAUUUGAUAUTT against 2410127E18Rik”, the z-score is inactive: -2.05. On to GGCCUUAGAACAAGGAAUATT against Cdk7, for which the z-score is inactive: 0.382.

As for GGCUUAGGGACUAUGAGGATT against Clecsf13, the z-score is inactive: -0.489. The same measure for “GGCUGUCACGGAAAUGUAGTT against 1110014J01Rik”: inactive: -0.228; for GCAAGACCCGUCACAAUCUTT against Slc16a9: inactive: 1.92.

As for CCUUCAGCAAUCUCAGAAATT against Olfr295, the z-score was inactive: 1.92.
